Where a chain is given by its changes, count along the chain named. These are yes or no findings as the source states them, for the method shown. Some entries that bind do so weakly or less than the wild type. Where a sequence is shown, tags or fusion partners need not be part of it.
Legend:
[1] = molecular target: T1, GST-DORN1-KD (DORN1 kinase domain) (Arabidopsis) (UniProt Q9LSR8); assay: pull-down; as the GST pull-down, with lambda protein phosphatase added to release phosphate groups from phosphorylated serine, threonine and tyrosine residues; both purified
T1 sequence: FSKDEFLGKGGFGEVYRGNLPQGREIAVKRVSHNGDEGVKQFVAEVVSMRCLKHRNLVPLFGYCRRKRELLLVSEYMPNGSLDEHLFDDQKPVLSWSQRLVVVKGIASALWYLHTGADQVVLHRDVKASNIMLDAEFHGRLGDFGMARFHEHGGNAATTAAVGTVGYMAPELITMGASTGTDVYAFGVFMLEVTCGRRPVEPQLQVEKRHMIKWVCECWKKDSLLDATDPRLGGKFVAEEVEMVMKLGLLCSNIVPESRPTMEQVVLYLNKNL

By UniProt entry, the sequences of proteins in these tests, tags left out. Residues count along the entry.
UniProt Q9FIJ0, residues 1-376: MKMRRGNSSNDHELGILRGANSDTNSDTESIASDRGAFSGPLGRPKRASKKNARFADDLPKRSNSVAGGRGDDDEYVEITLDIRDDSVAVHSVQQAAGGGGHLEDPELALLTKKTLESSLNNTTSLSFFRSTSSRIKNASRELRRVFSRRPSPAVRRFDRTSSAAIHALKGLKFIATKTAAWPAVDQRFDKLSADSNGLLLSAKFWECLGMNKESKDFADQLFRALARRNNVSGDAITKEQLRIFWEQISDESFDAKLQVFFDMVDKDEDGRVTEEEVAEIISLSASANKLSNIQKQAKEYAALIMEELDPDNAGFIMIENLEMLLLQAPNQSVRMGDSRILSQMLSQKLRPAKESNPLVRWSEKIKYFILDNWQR

[2] = molecular target: T2, GST-DORN1-KD-2 (kinase dead, D525N) (Arabidopsis) (UniProt Q9LSR8); assay: pull-down; 2 μg GST and His recombinant proteins in 50 mM Tris-HCl pH 7.5, 100 mM NaCl, 0.5% Triton-X 100, 2 h at 4 °C; Glutathione Resin beads; blots with anti-His and anti-GST; both purified
T2 sequence: T1 sequence with D182N

[3] = molecular target: T1, GST-DORN1-KD (DORN1 kinase domain) (Arabidopsis); assay: as above
[4] = molecular target: T3, GST-DORN1-KD-1 (kinase dead, D572N) (Arabidopsis) (UniProt Q9LSR8); assay: as above
T3 sequence: T1 sequence with D229N

Measured: binding

His-RBOHD-N (N-terminal cytoplasmic domain of RBOHD) (from UniProt Q9FIJ0 1-376) (domain or fragment)
binds: [1] | [2] | [3] | [4]

Reference: article PMC5741621
